# According to ChEMBL document CHEMBL3400138, “Synthesis of 3-azabicyclo[3.2.2]nonanes and their antiprotozoal activities” (Bioorg Med Chem Lett, 2015):
# Test system: Candida albicans
# Experiment: Antifungal activity against Candida albicans ATCC 10231 at 100 ug after 48 hrs
# Format: functional, organism-based
sequence,measurement,value
NYSTATIN,inhibition zone (IZ),23 mm
